Data on 2 substances can be found in paper PMC5179498.

Protein sequences, listed by entry. Tags and fused reporters are not part of them.
UniProt O60566: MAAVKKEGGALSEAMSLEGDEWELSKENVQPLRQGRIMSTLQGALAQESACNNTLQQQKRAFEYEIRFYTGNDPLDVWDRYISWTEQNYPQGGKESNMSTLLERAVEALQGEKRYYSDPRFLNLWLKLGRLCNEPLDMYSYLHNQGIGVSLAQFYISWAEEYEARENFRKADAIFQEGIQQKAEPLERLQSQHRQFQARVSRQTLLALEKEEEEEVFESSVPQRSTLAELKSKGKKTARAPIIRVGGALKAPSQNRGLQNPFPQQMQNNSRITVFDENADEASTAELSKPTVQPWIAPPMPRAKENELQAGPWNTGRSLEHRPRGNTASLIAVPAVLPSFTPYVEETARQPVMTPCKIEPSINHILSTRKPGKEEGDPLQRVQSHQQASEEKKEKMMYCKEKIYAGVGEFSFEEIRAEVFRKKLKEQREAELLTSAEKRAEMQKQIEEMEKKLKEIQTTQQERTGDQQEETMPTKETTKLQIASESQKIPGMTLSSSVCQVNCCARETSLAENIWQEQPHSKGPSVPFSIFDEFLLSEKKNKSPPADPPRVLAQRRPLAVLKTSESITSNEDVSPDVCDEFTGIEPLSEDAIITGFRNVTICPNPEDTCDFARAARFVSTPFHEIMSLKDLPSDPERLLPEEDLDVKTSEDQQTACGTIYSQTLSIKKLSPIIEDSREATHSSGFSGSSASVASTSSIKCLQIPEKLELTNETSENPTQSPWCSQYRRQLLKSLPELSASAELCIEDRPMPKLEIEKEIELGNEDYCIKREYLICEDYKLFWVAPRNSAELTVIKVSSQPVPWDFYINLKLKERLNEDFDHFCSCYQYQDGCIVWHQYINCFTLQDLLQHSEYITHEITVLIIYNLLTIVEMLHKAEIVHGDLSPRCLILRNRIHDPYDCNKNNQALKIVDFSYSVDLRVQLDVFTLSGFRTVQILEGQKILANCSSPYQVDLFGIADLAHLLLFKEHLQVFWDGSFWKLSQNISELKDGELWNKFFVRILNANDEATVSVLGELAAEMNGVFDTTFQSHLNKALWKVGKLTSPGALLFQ
UniProt O43684: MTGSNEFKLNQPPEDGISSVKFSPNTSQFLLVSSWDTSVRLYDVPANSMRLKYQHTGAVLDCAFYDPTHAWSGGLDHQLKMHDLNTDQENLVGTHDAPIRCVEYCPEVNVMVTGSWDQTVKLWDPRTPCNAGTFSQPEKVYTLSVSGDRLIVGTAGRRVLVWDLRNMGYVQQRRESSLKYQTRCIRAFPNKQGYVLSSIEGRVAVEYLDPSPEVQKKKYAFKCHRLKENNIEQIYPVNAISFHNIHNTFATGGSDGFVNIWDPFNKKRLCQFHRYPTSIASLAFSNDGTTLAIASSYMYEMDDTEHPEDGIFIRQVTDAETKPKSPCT
UniProt Q12834: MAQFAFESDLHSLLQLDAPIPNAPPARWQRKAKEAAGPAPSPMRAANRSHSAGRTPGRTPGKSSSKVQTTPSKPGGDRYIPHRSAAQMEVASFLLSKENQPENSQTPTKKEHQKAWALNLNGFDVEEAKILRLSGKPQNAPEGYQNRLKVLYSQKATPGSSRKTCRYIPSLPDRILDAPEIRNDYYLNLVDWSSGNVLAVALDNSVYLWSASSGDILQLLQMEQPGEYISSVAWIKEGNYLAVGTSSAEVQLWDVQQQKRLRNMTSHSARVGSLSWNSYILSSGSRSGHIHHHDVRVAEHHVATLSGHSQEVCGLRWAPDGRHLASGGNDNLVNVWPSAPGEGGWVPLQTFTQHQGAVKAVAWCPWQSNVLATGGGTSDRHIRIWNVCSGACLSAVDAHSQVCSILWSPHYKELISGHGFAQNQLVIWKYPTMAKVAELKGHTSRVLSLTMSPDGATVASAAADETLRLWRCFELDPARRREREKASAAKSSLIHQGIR

No constants are given. Whether binding was seen depends on the method and setting. For some of these results: Binding seen in cells or lysates may run through a third protein. Some results given as binding are weak or reduced against the parent protein; the word gives no strength.

For assay [1], the target named is streptavidin binding protein (SBP)-tagged BubR1, wild-type (human) (UniProt O60566). Kind of assay: tandem affinity co-purification; Cdc20, SBP-BubR1 (WT or mutants), His6-Mad2 and Bub3 co-expressed in Sf9 cells (MultiBac); biotin elution from Strep agarose beads followed by Ni-NTA beads; silver staining after SDS-PAGE.
Assay [2] has as its target T1, BubR1 ABBA^272 peptide, wild-type 272, biotin-conjugated (human).
T1 sequence (peptide, biotin (position not stated)): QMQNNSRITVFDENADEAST
Kind of assay: pull-down; biotinylated peptides coupled to streptavidin Ultralink beads; cleared extract of metaphase HeLa cells in PBS plus 0.5% Triton X-100 and protease inhibitors; 1 hr at 4°C; immunoblot on a LI-COR Odyssey scanner; only the target purified.

For assay [3], the target named is T2, BubR1 ABBA^528 peptide, wild-type 528, biotin-conjugated (human).
T2 sequence (peptide, biotin (position not stated)): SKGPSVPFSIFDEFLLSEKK
Described as above.

Assay [4] addresses T3, BubR1 ABBA^340 peptide, wild-type 340, biotin-conjugated (human).
T3 sequence (peptide, biotin (position not stated)): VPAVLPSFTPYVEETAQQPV
The description is as above.

Regarding “Bub3 (recombinant, in rMCC) (from UniProt O43684 1-328)”, in assay [1], the binding entry is “binds”.
With “Cdc20 (endogenous, metaphase HeLa cell extract) (from UniProt Q12834 1-499)”, the figures for the binding result in assay [2], in assay [3] and in assay [4] were “binds weakly”, “binds” and “binds weakly”, respectively.
